Test results from patent US8575188B2 (priority 2009, dated 2013).
Several values for one entry are separate records, joined by “and”; a condition that tells them apart may be missing. Identical values can stand only once. Like-named read-outs stand apart in the source and are kept apart here.

Columns and labels:
[1] = system: bone marrow progenitor cells; assay: Bone marrow progenitor cell clonogenic assay (CFU-GM), human
Description: A clonogenic assay was performed using bone marrow progenitor cells derived from the blood of mice and humans.

[2] = system: MRP1 over expressing H69AR line; assay: Efflux pump drug resistance, antiproliferation assay, MRP1 over expressing line; type: cell-based; conditions: ratio of IC50s, MRP1 over expressing versus parent line; for 5d H69AR/H69: 5 days; for 3d H69AR/H69: 3 days
Description: (§1) The compounds were screened for cytotoxicity using human non small cell lung cancer cell line H460. […]
(§2) Cellular drug resistance was determined using the antiproliferation assay described above.

[3] = system: DX5, which over expresses the MDR 1 efflux pump; assay: Efflux pump drug resistance, antiproliferation assay, MDR 1 over expressing line; type: cell-based; conditions: ratio of IC50s, MDR 1 over expressing versus parent line; for 3d DX5/MESSA: 3 days; for 5d DX5/MESSA: 5 days
Description: as §1, §2

[4] = Mouse CFU-GM IC50 / Human CFU-GM IC50
[5] = Mouse CFU-GM IC90 / Human CFU-GM IC90

| SMILES | Ratio [1, 4] | Ratio [1, 5] | Ratio [1] | 5d H69AR/H69 [2] | 3d DX5/MESSA [3] | 5d DX5/MESSA [3] | 3d H69AR/H69 [2] |
| --- | --- | --- | --- | --- | --- | --- | --- |
| CC[C@@]1(O)C(=O)OCc2c1cc1n(c2=O)Cc2cc3c(N)cccc3nc2-1 [9-amino camptothecin, reference compound] | 75 | 88 |  |  |  |  |  |
| CCc1c2c(nc3ccc(O)cc13)-c1cc3c(c(=O)n1C2)COC(=O)[C@]3(O)CC [SN-38, reference compound] |  |  | 85 and 100 |  |  |  |  |
| CC[C@@]1(O)C(=O)OCc2c1c([N+](=O)[O-])c1n(c2=O)Cc2cc3ccccc3nc2-1 [TH1317] |  |  |  | 1.4116 |  |  |  |
| CC[C@@]1(O)C(=O)OCc2c1c(N)c1n(c2=O)Cc2cc3ccccc3nc2-1 [TH1320] | 6 | 4 |  |  | 1.034 |  |  |
| CCc1c2c(nc3ccccc13)-c1c([N+](=O)[O-])c3c(c(=O)n1C2)COC(=O)[C@]3(O)CC [TH1332] |  |  |  | 2.0633 | 1.2 | 1.17 |  |
| CC[C@@]1(O)C(=O)OCc2c1c([N+](=O)[O-])c1n(c2=O)Cc2c-1nc1ccccc1c2CO [TH1333] |  |  |  |  | 2.3 |  |  |
| CCc1c2c(nc3ccccc13)-c1c(N)c3c(c(=O)n1C2)COC(=O)[C@]3(O)CC [TH1338] | 6 | 7 |  |  | 2.791 |  | 2.1818 |
| CC[C@@]1(O)C(=O)OCc2c1c(N)c1n(c2=O)Cc2c-1nc1ccccc1c2C [TH1339] | 56 | 22 |  |  | 0.788 |  | 2.1538 |
| CC[C@@]1(O)C(=O)OCc2c1c(N)c1n(c2=O)Cc2cc3c(N)cccc3nc2-1 [TH1386] | 23 | 17 |  |  | 0.538 |  | 1.383 |
| CCc1c2c(nc3ccccc13)-c1c(NC=O)c3c(c(=O)n1C2)COC(=O)[C@]3(O)CC [TH1408] | 8 | 8 |  |  | 0.5 |  | 1.1777 |
| CC[C@@]1(O)C(=O)OCc2c1c([N+](=O)[O-])c1n(c2=O)Cc2c-1nc1ccccc1c2/C=N/OC(C)(C)C [TH1431] |  |  |  | 2.36 |  | 2.0196 | >2.6 |
| CC[C@@]1(O)C(=O)OCc2c1c([N+](=O)[O-])c1n(c2=O)Cc2c-1nc1ccccc1c2C [TH1446] |  |  |  | 3.1 |  | 1.113 |  |
| CC[C@@]1(O)C(=O)OCc2c1c(N)c1n(c2=O)Cc2c-1nc1ccccc1c2/C=N/OC(C)(C)C [TH1499] |  |  |  |  | 0.556 |  | 2.1336 |
| CC[C@@]1(O)C(=O)OCc2c1c(NC=O)c1n(c2=O)Cc2cc3ccccc3nc2-1 [TH1589] | 8 | 9 |  |  |  |  |  |
| CC[C@@]1(O)C(=O)OCc2c1cc1n(c2=O)Cc2cc3c(CN(C)C)c(O)ccc3nc2-1 [Topotecan, reference compound] |  |  | 16 and 14 |  |  |  |  |
